Data reported in PubChem BioAssay AID2685 (National Center for Advancing Translational Sciences (NCATS), 2010).
The whole screen tested about 320,000 compounds, of which about 2,100 (0.66%) were called active. Inconclusive means that the source gave no clear call. Such entries were picked first, then a sample of the others. The call rests on the fitted dose curve; in most records, active means well fitted inhibition curve with a large enough effect in the signal ratio, with a control signal flat (not every such curve was filed as active); inconclusive means small, poorly fitted or top-dose-only effect, or effect the other way, or a change in a side signal; inactive means flat fitted curve, though single readings scatter; the % refers to the signal ratio. Where the call is inconclusive, the potency comes from a doubtful curve fit.

Experiment: qHTS Assay for Lipid Storage Modulators in Drosophila S3 Cells
Conditions: BODIPY lipid droplet fluorescence, 18-24 h, cells fed with added oleic acid; lipid storage change, negative = inhibition: at 46.1 µM (top of the series) unless noted
Procedure, shortened: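 Drosophila S3 cells got compounds at several concentrations plus oleic acid (400 uM solution). Laser-scanning cytometry with 488 nm excitation read lipid droplets at 500-530 nm and cells at 575-640 nm. Percent activity was relative to 20 uM Triacsin C.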
On the % scale 0 is the no-effect control and ±100 the full control effect; potency means the concentration at half of the fitted maximal effect.

Q: With `O=C(O)CC(c1ccc(F)cc1F)N1Cc2ccccc2C1=O` (stereo not drawn) as the compound, how does the lipid storage change, negative = inhibition read?
A: inconclusive: -24.8%

Q: For `Cc1ccc(NC(=O)CCC(=O)c2cccs2)cc1F`, which Potency is on record?
A: inconclusive: 20.6 µM [activator, single point]

Q: With `CC1CCN(C(=O)CNC(=O)CNS(=O)(=O)c2ccccc2)CC1` as the compound, how does the lipid storage change, negative = inhibition read?
A: inconclusive: 146%

Q: Which lipid storage change, negative = inhibition does the source give for `CSc1ccc(C(=O)C2CCCN(C(=O)Cn3cnnn3)C2)cc1` (stereo not drawn) here?
A: inconclusive: 12.1%

Q: With `Fc1cccc(Cl)c1CSc1ccc2nnc(-c3ccccn3)n2n1` as the compound, how does the lipid storage change, negative = inhibition read?
A: inconclusive: 8.16%

Q: Which lipid storage change, negative = inhibition does the source give for `Cc1ccccc1NC(=O)C(NC1CCCCC1)C(C)C` (stereo not drawn) here?
A: inconclusive: 1.51%

Q: For `CC(=O)Nc1ccc(NC(=O)c2ccc(CSc3ccccc3)o2)cc1`, which lipid storage change, negative = inhibition is on record?
A: inconclusive: 23.2%

Q: For `O=C1CCN(CCc2ccccc2)CCN1[C@H](CO)c1ccccc1`, which lipid storage change, negative = inhibition is on record?
A: inconclusive: -7.81%

Q: With `CCCCNC(=S)NCc1ccc2[nH]c(C)cc2c1` as the compound, how does the Potency read?
A: inconclusive: 3.66 µM [activator, partial curve]

Q: Which lipid storage change, negative = inhibition does the source give for `O=C(O)CSc1nnc(-c2ccc(Cl)cc2Cl)n1-c1ccc(Cl)cc1` here?
A: inconclusive: 61.7%

Q: With `N#Cc1c(C(F)(F)F)cc(-c2ccccc2)[nH]c1=O` as the compound, how does the lipid storage change, negative = inhibition read?
A: inconclusive: -44.6%

Q: Which lipid storage change, negative = inhibition does the source give for `Clc1ccc(Cl)c(OCCN2CCCC2)c1` here?
A: inconclusive: 186%

Q: With `Cc1ccc(NC(=O)c2nnn(-c3ccc4c(c3)OCCO4)c2N)cc1` as the compound, how does the lipid storage change, negative = inhibition read?
A: inconclusive: 141%

Q: With `Cc1nonc1CC(=O)N1CCc2c([nH]c3ccccc23)C1c1ccccc1F` (stereo not drawn) as the compound, how does the lipid storage change, negative = inhibition read?
A: inconclusive: -2.73%

Q: With `Brc1ccccc1C1N=C(c2ccccc2)NO1` (stereo not drawn) as the compound, how does the Potency read?
A: inconclusive: 6.51 µM [falling, single point]

Q: With `OCCC1CN(Cc2ccc3c(c2)CCO3)CCN1C1CCCC1` (stereo not drawn) as the compound, how does the lipid storage change, negative = inhibition read?
A: inconclusive: -11.6%

Q: With `C=CCn1c(SC(C)C(=O)Nc2ccc(F)c(F)c2F)nnc1C1CC1` (stereo not drawn) as the compound, how does the lipid storage change, negative = inhibition read?
A: inconclusive

Q: With `O=C(/C=C/c1ccc(O)c(O)c1)c1ccccc1O` as the compound, how does the Potency read?
A: inconclusive: 32.6 µM [falling, single point]

Q: Which lipid storage change, negative = inhibition does the source give for `Cc1nc(-c2c(-c3ccc(O)cc3O)noc2C(F)(F)F)cs1` here?
A: inconclusive: 111%

Q: Which lipid storage change, negative = inhibition does the source give for `COc1ccc(-c2[nH]ncc2CN(C)C(C)c2ccon2)cc1F` (stereo not drawn) here?
A: inconclusive: -20.5%

Q: With `Cn1c(=O)c2cc(S(=O)(=O)NCCC(=O)NC3CCCCCCC3)ccc2n(C)c1=O` as the compound, how does the lipid storage change, negative = inhibition read?
A: inconclusive: 59.2%

Q: For `Cc1ccc(CN2C(=O)C(Cc3ccccc3)Nc3ncnc(N4CCCCC4)c32)cc1` (stereo not drawn), which Potency is on record?
A: inconclusive: 6.51 µM [falling, single point]

Q: With `Cc1cc(-c2ccco2)n(CC(=O)NCCN(C)C)n1` as the compound, how does the Potency read?
A: inconclusive: 29.1 µM [activator, single point]

Q: For `CC(C)Cc1cc(CNC(=O)C2CCC(=O)N(Cc3cccc(C(F)(F)F)c3)C2)on1` (stereo not drawn), which lipid storage change, negative = inhibition is on record?
A: inconclusive: 8.74%

Q: With `NC(=O)CSc1nnc(-c2cccc(S(=O)(=O)N3CCOCC3)c2)n1C1CCCCCC1` as the compound, how does the lipid storage change, negative = inhibition read?
A: inconclusive: -1.44%

Q: For `Oc1ccc(/C=N/NC(=S)NCC2CCCO2)cc1` (stereo not drawn), which lipid storage change, negative = inhibition is on record?
A: inconclusive: -28.2%

Q: With `CCOC(=O)CNS(=O)(=O)c1cc(-c2n[nH]c(=O)c3ccccc23)ccc1C` as the compound, how does the lipid storage change, negative = inhibition read?
A: inconclusive: 0.482%

Q: With `O=C(NCCNC(=O)c1ccccn1)c1cccc(F)c1` as the compound, how does the lipid storage change, negative = inhibition read?
A: inconclusive: 192%

Q: With `CCOC(=O)c1cnc2ccc(C(=O)OC)cc2c1NCCc1ccc(OC)c(OC)c1` as the compound, how does the Potency read?
A: inconclusive: 0.082 µM [activator, full curve, poor fit]

Q: With `CC(=O)N(c1ccc2oc(=O)sc2c1)S(=O)(=O)c1ccc(C(=O)O)cc1` as the compound, how does the Potency read?
A: inconclusive: 1.16 µM [falling, partial curve, poor fit]

Q: With `O=S(=O)(NC(=NCc1ccccc1)c1ccc(F)cc1)c1ccc(Cl)cc1` as the compound, how does the Potency read?
A: inconclusive: 23.1 µM [rising, partial curve, poor fit]

Q: With `COc1ccc(NC(=O)COC(=O)CN2C(=O)NC(C)(C)C2=O)cc1` as the compound, how does the lipid storage change, negative = inhibition read?
A: inconclusive: 2.55%

Q: Which lipid storage change, negative = inhibition does the source give for `CCOc1ccc(C(=O)NCCc2cnc[nH]2)cc1OCC` here?
A: inconclusive: 60%

Q: With `CS(=O)(=O)NCc1ccc(C(=O)NCc2ccccc2)cc1` as the compound, how does the lipid storage change, negative = inhibition read?
A: inconclusive: -9.69%

Q: Which lipid storage change, negative = inhibition does the source give for `O=[N+]([O-])c1ccccc1Nc1nc(-c2cccnc2)cs1` here?
A: inconclusive: 34.6%

Q: Which Potency does the source give for `COc1ccc(-c2nc(C#N)c(NCc3ccc(C)cc3)o2)cc1OC` here?
A: inconclusive: 0.58 µM [activator, full curve, poor fit]

Q: For `CCOc1ccc(-c2nnc(N)o2)cc1`, which lipid storage change, negative = inhibition is on record?
A: inconclusive: 15%

Q: With `COc1ccc(Cl)cc1NC(=O)Cc1c(F)cccc1Cl` as the compound, how does the Potency read?
A: inconclusive: 8.2 µM [activator, partial curve, poor fit]

Q: For `CCOc1ccccc1NC(=O)CN1c2cccc3cccc(c23)S1(=O)=O`, which lipid storage change, negative = inhibition is on record?
A: inconclusive: -5.1%

Q: With `Cc1cc(C)c(S(=O)(=O)Nc2ccc(O)c(Sc3ncn[nH]3)c2)cc1C` as the compound, how does the Potency read?
A: inconclusive: 32.6 µM [falling, single point]

Q: For `O=C1CNC(=O)N1CC(=O)N1CCCc2ccccc21`, which Potency is on record?
A: active: 29.1 µM

Q: Which lipid storage change, negative = inhibition does the source give for `COc1ccc2cc(-c3[nH]ncc3CN3C[C@@H]4CCC[C@H]3C4)ccc2c1` here?
A: inconclusive: -2.36%

Q: Which lipid storage change, negative = inhibition does the source give for `Cc1ccc2c(c1)-c1c(ssc1=S)C(C)(C)N2C(=O)CN1C(=O)c2ccccc2C1=O` here?
A: inconclusive: 10.9%

Q: Which lipid storage change, negative = inhibition does the source give for `COC(=O)CC/C(O)=C1\C(=O)CC(C)(C)CC1=NCc1nc2ccccc2[nH]1` here?
A: inconclusive: 11.6%

Q: With `CC1=CC(C)(C)N=C(NC#N)N1` as the compound, how does the Potency read?
A: inconclusive: 14.6 µM [falling, partial curve, poor fit]

Q: For `CCn1cc(Cl)c(C(=O)NNC(=O)CCn2cc([N+](=O)[O-])cn2)n1`, which lipid storage change, negative = inhibition is on record?
A: inconclusive: 0.265%

Q: Which lipid storage change, negative = inhibition does the source give for `Cc1cc2oc(=O)cc(-c3cc4ccccc4o3)c2cc1O` here?
A: inconclusive: -194%

Q: With `N#CCCn1cnc2ccccc21` as the compound, how does the lipid storage change, negative = inhibition read?
A: inconclusive: -10.2%

Q: With `COc1ccc(Cn2nnnc2C(c2ccccc2Cl)N2CCN(C)CC2)cc1` (stereo not drawn) as the compound, how does the lipid storage change, negative = inhibition read?
A: inconclusive: -28.1%

Q: With `O=C(CNS(=O)(=O)c1ccc(Br)cc1)NCc1cccnc1` as the compound, how does the Potency read?
A: inconclusive: 7.31 µM [activator, partial curve, poor fit]

Q: For `Cc1c(N2C(=O)C(=O)/C(=C(/O)c3ccc(Cl)cc3)C2c2ccccc2)c(=O)n(-c2ccccc2)n1C` (stereo not drawn), which Potency is on record?
A: inconclusive: 0.259 µM [falling, full curve, poor fit]

Q: Which lipid storage change, negative = inhibition does the source give for `c1ccc(Cc2nc3ccccc3[nH]2)cc1` here?
A: inconclusive: 22.8%

Q: For `O=C(CCCn1cncn1)N1CCCC(Nc2ccc(F)cc2)C1` (stereo not drawn), which lipid storage change, negative = inhibition is on record?
A: inconclusive: 6.95%

Q: With `CC(C)(C)OC(=O)N1CCC(C(=O)NCC2CCCO2)CC1` (stereo not drawn) as the compound, how does the Potency read?
A: inconclusive: 6.51 µM [activator, single point]

Q: With `CCc1noc(C)c1C(=O)Nc1cc(S(=O)(=O)N2CCCCC2)ccc1N(C)C` as the compound, how does the lipid storage change, negative = inhibition read?
A: inconclusive: 28.1%

Q: For `O=C(/C=C/c1ccc(Cl)cc1Cl)N1CCN(c2ccc([N+](=O)[O-])c(N3CCOCC3)c2)CC1`, which Potency is on record?
A: inconclusive: 0.092 µM [activator, full curve, poor fit]

Q: With `CCN(CC)S(=O)(=O)c1ccc(C)c(NC(=O)Cn2c(=O)cnc3ccccc32)c1` as the compound, how does the lipid storage change, negative = inhibition read?
A: inconclusive: -20.2%

Q: Which Potency does the source give for `CCOc1ccccc1NC(=O)CS(=O)(=O)c1cn(CC(=O)N2CCOCC2)c2ccccc12` here?
A: inconclusive: 29.1 µM [falling, single point]

Q: Which Potency does the source give for `CCn1c(Cc2ccccc2)nnc1SCC(=O)Nc1nnc(-c2ccccc2)s1` here?
A: inconclusive: 11.6 µM [activator, partial curve, poor fit]

Q: Which lipid storage change, negative = inhibition does the source give for `O=C(/C=C/c1ccccc1)OCCCCN=C1NS(=O)(=O)c2ccccc21` here?
A: inconclusive: -20.5%

Q: With `CCN(CC)c1ccc(/C=N/n2c(C)cc(C)cc2=O)cc1` as the compound, how does the “lipid storage change, negative = inhibition” value read?
A: inactive: 18.4%

Q: Which Potency does the source give for `CCN1C(=O)C(=Cc2cccc(OC)c2Oc2ccc([N+](=O)[O-])cc2[N+](=O)[O-])SC1=S` here?
A: inconclusive: 23.1 µM [falling, partial curve, poor fit]

Q: With `COc1cc(/C=C/C(=O)c2ccc(F)cc2)cc(OC)c1OC` as the compound, how does the lipid storage change, negative = inhibition read?
A: inconclusive: -97.2%

Q: For `CC(C)(C)Cc1nnc(NS(=O)(=O)c2ccc(F)cc2)s1`, which Potency is on record?
A: active: 0.0517 µM

Q: For `COc1cccc(C(=O)NCCSCc2c(F)cccc2Cl)c1`, which lipid storage change, negative = inhibition is on record?
A: inconclusive: -37.3%

Q: For `O=C(CSc1nncs1)NC1CCCc2ccccc21` (stereo not drawn), which lipid storage change, negative = inhibition is on record?
A: inconclusive: 10.3%

Q: For `Cc1nc2nc(-c3ccccc3)cn2nc1C`, which lipid storage change, negative = inhibition is on record?
A: inconclusive: 9.7%

Q: Which lipid storage change, negative = inhibition does the source give for `CCOc1ccc(S(=O)(=O)N(CC(=O)O)c2ccc(C)cc2)cc1` here?
A: inconclusive: -90.1%

Q: For `COc1ccc(C(=O)CCC(=O)N2CCN(c3ccc([N+](=O)[O-])cc3)CC2)cc1`, which lipid storage change, negative = inhibition is on record?
A: inconclusive: -11.2%

Q: For `O=C(O)CCOc1ccc2c(c1)OCCO2`, which lipid storage change, negative = inhibition is on record?
A: inconclusive: 0.159%

Q: With `Brc1ccc(OCCCOc2cccc3cccnc23)cc1` as the compound, how does the Potency read?
A: inconclusive: 0.461 µM [activator, partial curve, poor fit]

Q: With `CCN(CC)S(=O)(=O)c1cc(NC(=O)CCNC(=O)c2ccco2)ccc1C` as the compound, how does the lipid storage change, negative = inhibition read?
A: inconclusive: -69.3%

Q: With `CNC(=S)N1CCC(NC(=O)C23CC4CC(CC(C4)C2)C3)CC1` as the compound, how does the lipid storage change, negative = inhibition read?
A: inconclusive: 11.6%

Q: For `Cc1ccccc1NC(=O)Cc1nc(COC(=O)COc2cccc(C)c2C)cs1`, which lipid storage change, negative = inhibition is on record?
A: inconclusive: 39.7% [at 0.0737 µM]

Q: Which Potency does the source give for `COc1ccc(S(=O)(=O)n2nc(C)cc2C)cc1OC` here?
A: inconclusive: 20.6 µM [activator, single point]

Q: For `Nc1ccccc1Sc1nc2ccccc2[nH]1`, which lipid storage change, negative = inhibition is on record?
A: inconclusive: -23.9%

Q: Which lipid storage change, negative = inhibition does the source give for `COc1ccc(C(CNC(=O)C(C)Oc2ccc(Br)cc2)N2CCCC2)cc1` (stereo not drawn) here?
A: inconclusive: 30.9%

Q: For `COc1ccc2c(c1)C(=O)N(c1ccccc1OC)C(=O)C2(C)C`, which Potency is on record?
A: inconclusive: 23.1 µM [rising, single point]
